Laboratory results published in article PMC12501224.
No constants are given. Whether binding was seen depends on the method and setting. In cells and extracts the contact can be indirect. Some binding calls cover weakened binding; strength is not graded here.

Sequences of proteins named here, by UniProt entry; tags and fusion partners are left off.
UniProt P28741: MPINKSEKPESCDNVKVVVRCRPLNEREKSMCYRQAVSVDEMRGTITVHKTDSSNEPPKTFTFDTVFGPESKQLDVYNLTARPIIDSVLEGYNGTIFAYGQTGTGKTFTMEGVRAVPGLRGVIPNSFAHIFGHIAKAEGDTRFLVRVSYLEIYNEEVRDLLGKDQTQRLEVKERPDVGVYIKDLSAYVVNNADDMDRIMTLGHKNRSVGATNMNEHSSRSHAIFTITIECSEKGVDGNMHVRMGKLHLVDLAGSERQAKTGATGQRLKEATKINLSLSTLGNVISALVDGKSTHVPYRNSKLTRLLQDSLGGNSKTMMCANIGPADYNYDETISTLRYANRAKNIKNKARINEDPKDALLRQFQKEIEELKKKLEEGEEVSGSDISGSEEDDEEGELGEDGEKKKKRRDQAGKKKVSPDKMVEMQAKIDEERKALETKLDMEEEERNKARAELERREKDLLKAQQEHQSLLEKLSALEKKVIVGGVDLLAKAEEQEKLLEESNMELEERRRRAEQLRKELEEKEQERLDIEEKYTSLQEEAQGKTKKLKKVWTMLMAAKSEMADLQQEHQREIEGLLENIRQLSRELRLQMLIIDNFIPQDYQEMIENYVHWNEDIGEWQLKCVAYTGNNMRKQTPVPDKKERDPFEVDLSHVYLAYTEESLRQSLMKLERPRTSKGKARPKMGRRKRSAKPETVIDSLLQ

Target: T1, Eftud2 (elongation factor Tu GTP binding domain containing 2) (mouse (endogenous in SmoM2^Atoh1 mouse tumors)) (UniProt O08810)
T1 sequence: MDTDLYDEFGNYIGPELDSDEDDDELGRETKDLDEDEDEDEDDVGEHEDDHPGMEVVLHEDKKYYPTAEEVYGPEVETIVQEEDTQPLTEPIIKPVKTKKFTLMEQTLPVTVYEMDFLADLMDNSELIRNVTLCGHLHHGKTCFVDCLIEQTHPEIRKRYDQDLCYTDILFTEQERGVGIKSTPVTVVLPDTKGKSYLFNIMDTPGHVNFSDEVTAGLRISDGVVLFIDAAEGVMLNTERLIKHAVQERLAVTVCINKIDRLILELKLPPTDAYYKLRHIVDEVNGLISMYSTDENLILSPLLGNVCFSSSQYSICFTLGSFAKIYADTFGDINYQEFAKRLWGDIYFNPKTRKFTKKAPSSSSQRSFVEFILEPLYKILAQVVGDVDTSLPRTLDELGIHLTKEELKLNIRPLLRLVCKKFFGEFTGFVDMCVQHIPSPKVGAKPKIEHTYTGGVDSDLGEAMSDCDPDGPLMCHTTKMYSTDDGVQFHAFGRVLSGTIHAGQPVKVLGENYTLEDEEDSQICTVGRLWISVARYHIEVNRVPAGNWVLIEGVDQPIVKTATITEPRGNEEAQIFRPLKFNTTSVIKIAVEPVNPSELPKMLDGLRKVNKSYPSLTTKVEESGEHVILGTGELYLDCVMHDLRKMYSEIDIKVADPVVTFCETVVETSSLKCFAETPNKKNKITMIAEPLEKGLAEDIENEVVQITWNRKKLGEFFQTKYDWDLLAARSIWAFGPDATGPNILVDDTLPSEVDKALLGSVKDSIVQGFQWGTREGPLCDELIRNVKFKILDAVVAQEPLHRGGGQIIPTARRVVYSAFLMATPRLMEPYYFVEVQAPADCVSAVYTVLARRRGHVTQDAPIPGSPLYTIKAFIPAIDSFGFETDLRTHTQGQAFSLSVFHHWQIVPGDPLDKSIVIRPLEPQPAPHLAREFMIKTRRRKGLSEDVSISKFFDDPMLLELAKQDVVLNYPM
Experiment: co-IP; lysate of SmoM2^Atoh1 mouse tumors (50 mM Tris pH 7.5, 150 mM NaCl, 10 mM MgCl2, 1% Triton X-100, 10% glycerol, 1 mM EDTA); primary antibody (1 ug/ml lysate) with protein A/G magnetic agarose beads overnight; 3 washes; immunoblot

binding: binds
Substance: Kif3a (kinesin family member 3A) (from UniProt P28741 1-701)
